These are yes or no findings as the source states them, for the method shown. In cells and extracts the contact can be indirect. Here binding means that the protein was enriched with, or labelled near, the bait; the list need not be complete. For some assays here: Tags and fused reporters may be left off the sequences shown. Each block holds one molecule with its values, some of them ahead of it.
Key:
YidC-BirA* (E. coli) = biological target: T1, YidC-BirA* (E. coli) (UniProt P25714); assay: proximity labelling
T1 sequence: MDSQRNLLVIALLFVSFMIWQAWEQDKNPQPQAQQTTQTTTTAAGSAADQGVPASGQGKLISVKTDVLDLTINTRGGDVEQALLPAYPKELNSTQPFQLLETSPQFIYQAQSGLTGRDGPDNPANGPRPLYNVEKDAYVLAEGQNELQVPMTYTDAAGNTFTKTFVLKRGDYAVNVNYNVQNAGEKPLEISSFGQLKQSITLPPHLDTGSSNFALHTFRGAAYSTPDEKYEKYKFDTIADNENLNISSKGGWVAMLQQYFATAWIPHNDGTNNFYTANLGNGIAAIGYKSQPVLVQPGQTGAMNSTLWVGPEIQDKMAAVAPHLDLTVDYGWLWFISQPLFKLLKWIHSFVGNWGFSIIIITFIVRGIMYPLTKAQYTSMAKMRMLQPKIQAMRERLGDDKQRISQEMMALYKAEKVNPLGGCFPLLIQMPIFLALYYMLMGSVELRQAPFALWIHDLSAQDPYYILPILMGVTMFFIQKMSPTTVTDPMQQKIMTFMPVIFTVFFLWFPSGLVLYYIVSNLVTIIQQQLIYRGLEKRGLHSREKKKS

The chains behind the UniProt entries cited, without tags or fusion partners.
UniProt P0AAI3: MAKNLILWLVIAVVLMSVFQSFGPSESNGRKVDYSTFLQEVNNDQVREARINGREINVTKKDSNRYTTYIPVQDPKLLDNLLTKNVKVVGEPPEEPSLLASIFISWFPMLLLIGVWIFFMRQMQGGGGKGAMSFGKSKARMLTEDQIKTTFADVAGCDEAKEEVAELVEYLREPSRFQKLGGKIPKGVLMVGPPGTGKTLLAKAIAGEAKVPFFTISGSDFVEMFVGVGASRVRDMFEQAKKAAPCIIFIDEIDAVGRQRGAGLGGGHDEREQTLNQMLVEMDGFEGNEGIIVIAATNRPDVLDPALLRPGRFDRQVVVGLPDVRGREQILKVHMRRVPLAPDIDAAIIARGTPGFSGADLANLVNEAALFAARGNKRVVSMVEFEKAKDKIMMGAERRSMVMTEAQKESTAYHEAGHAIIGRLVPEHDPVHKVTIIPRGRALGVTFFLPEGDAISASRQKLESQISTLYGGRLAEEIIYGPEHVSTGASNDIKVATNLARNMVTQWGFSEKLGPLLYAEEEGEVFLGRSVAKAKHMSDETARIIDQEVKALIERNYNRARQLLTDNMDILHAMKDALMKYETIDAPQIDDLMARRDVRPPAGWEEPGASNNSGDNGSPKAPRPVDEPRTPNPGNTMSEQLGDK
UniProt P0AA53: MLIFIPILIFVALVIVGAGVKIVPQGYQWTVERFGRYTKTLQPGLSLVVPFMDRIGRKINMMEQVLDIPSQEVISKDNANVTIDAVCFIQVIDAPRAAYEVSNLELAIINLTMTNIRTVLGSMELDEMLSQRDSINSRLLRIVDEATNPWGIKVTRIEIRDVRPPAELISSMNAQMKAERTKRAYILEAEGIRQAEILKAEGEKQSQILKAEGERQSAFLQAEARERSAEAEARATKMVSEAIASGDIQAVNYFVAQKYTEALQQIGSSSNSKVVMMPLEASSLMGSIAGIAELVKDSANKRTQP

YibN-SPA (E. coli) = biological target: T2, YibN-SPA (E. coli) (UniProt P0AG27); assay: affinity purification with mass spectrometry
T2 sequence: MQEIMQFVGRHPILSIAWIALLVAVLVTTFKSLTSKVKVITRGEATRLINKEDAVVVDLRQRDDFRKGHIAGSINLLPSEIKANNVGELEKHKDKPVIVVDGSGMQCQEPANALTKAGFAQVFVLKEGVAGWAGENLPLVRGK

His6-YidC = biological target: T3, His6-YidC (E. coli, UniProt P25714 1-548); assay: affinity purification with mass spectrometry
T3 sequence (looked up): T1 sequence

YibN-His6 (E. coli) = biological target: T4, YibN-His6 (E. coli) (UniProt P0AG27); assay: affinity purification with mass spectrometry
T4 sequence: T2 sequence

Molecule: FtsH (from UniProt P0AAI3 1-644)
binding (YidC-BirA* (E. coli)): binds

Molecule: QmcA (from UniProt P0AA53 1-305)
binding (YibN-SPA (E. coli)): binds

B3: GntR (protein, UniProt P0ACP5 1-331)
chain: MKKKRPVLQDVADRVGVTKMTVSRFLRNPEQVSVALRGKIAAALDELGYIPNRAPDILSNATSRAIGVLLPSLTNQVFAEVLRGIESVTDAHGYQTMLAHYGYKPEMEQERLESMLSWNIDGLILTERTHTPRTLKMIEVAGIPVVELMDSKSPCLDIAVGFDNFEAARQMTTAIIARGHRHIAYLGARLDERTIIKQKGYEQAMLDAGLVPYSVMVEQSSSYSSGIELIRQARREYPQLDGVFCTNDDLAVGAAFECQRLGLKVPDDMAIAGFHGHDIGQVMEPRLASVLTPRERMGSIGAERLLARIRGESVTPKMLDLGFTLSPGGSI
binding (YibN-SPA (E. coli)): binds

B4: HflK (protein, UniProt P0ABC7 1-419)
chain: MAWNQPGNNGQDRDPWGSSKPGGNSEGNGNKGGRDQGPPDLDDIFRKLSKKLGGLGGGKGTGSGGGSSSQGPRPQLGGRVVTIAAAAIVIIWAASGFYTIKEAERGVVTRFGKFSHLVEPGLNWKPTFIDEVKPVNVEAVRELAASGVMLTSDENVVRVEMNVQYRVTNPEKYLYSVTSPDDSLRQATDSALRGVIGKYTMDRILTEGRTVIRSDTQRELEETIRPYDMGITLLDVNFQAARPPEEVKAAFDDAIAARENEQQYIREAEAYTNEVQPRANGQAQRILEEARAYKAQTILEAQGEVARFAKLLPEYKAAPEITRERLYIETMEKVLGNTRKVLVNDKGGNLMVLPLDQMLKGGNAPAAKSDNGASNLLRLPPASSSTTSGASNTSSTSQGDIMDQRRANAQRNDYQRQGE
binding (YidC-BirA* (E. coli)): binds

B6: HflC (protein, UniProt P0ABC3 1-334)
chain: MRKSVIAIIIIVLVVLYMSVFVVKEGERGITLRFGKVLRDDDNKPLVYEPGLHFKIPFIETVKMLDARIQTMDNQADRFVTKEKKDLIVDSYIKWRISDFSRYYLATGGGDISQAEVLLKRKFSDRLRSEIGRLDVKDIVTDSRGRLTLEVRDALNSGSAGTEDEVTTPAADNAIAEAAERVTAETKGKVPVINPNSMAALGIEVVDVRIKQINLPTEVSEAIYNRMRAEREAVARRHRSQGQEEAEKLRATADYEVTRTLAEAERQGRIMRGEGDAEAAKLFADAFSKDPDFYAFIRSLRAYENSFSGNQDVMVMSPDSDFFRYMKTPTSATR
binding (YidC-BirA* (E. coli)): binds

The remaining lines, values ahead:

binding (YibN-SPA (E. coli)): binds
B1: YajC (protein, UniProt P0ADZ7 1-110)
chain: MSFFISDAVAATGAPAQGSPMSLILMLVVFGLIFYFMILRPQQKRTKEHKKLMDSIAKGDEVLTNGGLVGRVTKVAENGYIAIALNDTTEVVIKRDFVAAVLPKGTMKAL

binding (YidC-BirA* (E. coli)): binds | binding (His6-YidC): binds
B2: YibN-His6 (natural protein, E. coli, UniProt P0AG27 1-143, looked up)
chain: T2 sequence

binding (YibN-His6 (E. coli)): binds | binding (YibN-SPA (E. coli)): binds
B5: YidC (endogenous) (protein, UniProt P25714 1-548)
chain: T1 sequence

binding (YibN-SPA (E. coli)): binds
B7: YgfX (protein, UniProt Q46824 1-135)
chain: MVLWQSDLRVSWRAQWLSLLIHGLVAAVILLMPWPLSYTPLWMVLLSLVVFDCVRSQRRINARQGEIRLLMDGRLRWQGQEWSIVKAPWMIKSGMMLRLRSDGGKRQHLWLAADSMDEAEWRDLRRILLQQETQR

From paper doi:10.1101/2024.12.13.628402 (bioRxiv, 2024)
